Results on one molecule are retold here after BindingDB's records for PubMed 8301582 (Neuroscience Research Centre, 1994).

Protein sequences, listed by entry. Tags and fused reporters are not part of them. Chains listed by the source or under a name are the forms on record and can include a tag or linker.
UniProt P35462, as listed by the source: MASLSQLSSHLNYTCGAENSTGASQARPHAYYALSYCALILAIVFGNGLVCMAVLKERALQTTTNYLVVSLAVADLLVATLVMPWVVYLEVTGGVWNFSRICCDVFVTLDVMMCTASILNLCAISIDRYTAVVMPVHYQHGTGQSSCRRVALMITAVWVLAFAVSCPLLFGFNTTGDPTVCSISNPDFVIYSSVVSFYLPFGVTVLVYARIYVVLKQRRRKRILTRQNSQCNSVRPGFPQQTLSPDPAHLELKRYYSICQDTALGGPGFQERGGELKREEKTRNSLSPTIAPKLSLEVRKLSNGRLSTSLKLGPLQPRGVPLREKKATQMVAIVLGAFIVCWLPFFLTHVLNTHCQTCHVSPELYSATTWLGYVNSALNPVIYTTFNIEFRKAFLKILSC

The target of this assay is D(3) dopamine receptor (Homo sapiens, UniProt P35462).

The structures appear in SMILES notation. pKi: −log10 of the molar value.

In general, pKi refers to −log10 of the Ki, conventionally taken in molar units. A high value points to a low Ki. In turn, `O=c1[nH]c2ccccc2n1CCCN1CCC(n2c(=O)[nH]c3cc(Cl)ccc32)CC1` gave a negative-log Ki (pKi) of 8.54.
